# Experimental data taken from PubChem BioAssay AID493014 (National Center for Advancing Translational Sciences (NCATS), 2011).
# Some of the results follow. The main result of the screen is listed elsewhere. These columns were measured beside it and carry no call. The list favours compounds with an active or inconclusive main result. Words in brackets tell the shape of the fitted curve; partial curves, single points and poor fits give uncertain potencies.
# Assay: qHTS Assay to Find Inhibitors of Chronic Active B-Cell Receptor Signaling
# Conditions: ABC-DLBCL IkBa-CBG/CBR reporter, luminescence ratio (green luciferase fused to IkBa over red control in TMD8 lymphoma cells), 4 h
# Method in brief: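 TMD8 ABC-DLBCL cells carrying doxycycline-inducible green luciferase fused to IkappaBalpha plus unfused red luciferase were exposed to compounds (up to 46 uM) for 4 hrs at 37C. Activity came from the overlap-corrected green/red luminescence ratio.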
# [1] = measured here: CBR red luminescence, cell number
# [2] = measured here: IkBa-CBG green luminescence
SMILES,AC50 [1],AC50 [2]
Fc1cccc(-c2cc3nc4c(c(NCc5ccco5)n3n2)CCCC4)c1,"1.26 µM [falling, full curve, poor fit]",–
CCOC(=O)C1=C(COC(=O)/C=C/c2cc(OC)c(OC)c(OC)c2)NC(=O)NC1C (stereo not drawn),"12.6 µM [rising, partial curve]",–
Cc1oc2ccc(OCc3ccccc3Cl)cc2c1C(=O)O,"0.562 µM [rising, full curve, poor fit]",–
Cc1cccc2sc(NC(=O)[C@H](C)N3C(=O)C4CC=CCC4C3=O)nc12 (stereo partly drawn),"3.98 µM [falling, single point]",–
O=C(c1c(Cl)nc2sccn12)N(C(=O)c1c(Cl)nc2sccn12)c1ccc(Cl)cn1,"1.84 µM [rising, partial curve]",–
Cc1cc(Cl)n2c(nc3ccccc32)c1C#N,–,"2 µM [falling, partial curve, poor fit]"
Cn1nnc2cc(C(=O)Nc3ccccc3F)ccc21,"7.94 µM [falling, partial curve]",–
CC(C(=O)N1CCc2ccccc21)N1CCN(c2ccccn2)CC1 (stereo not drawn),"0.82 µM [rising, full curve, poor fit]",–
COc1ccccc1NS(=O)(=O)c1cc(NC(=O)COc2ccccc2)ccc1N1CCOCC1,"18.4 µM [falling, partial curve, poor fit]",–
O=[N+]([O-])c1ccc(/C=N/N=C/c2ccc([N+](=O)[O-])o2)o1,"0.794 µM [rising, partial curve, poor fit]",–
N=c1oc2ccccc2cc1C(=O)Nc1ccc(F)cc1,"12.6 µM [falling, partial curve, poor fit]",–
COc1ccccc1CNC(=O)CS(=O)Cc1nc(-c2ccc(OC)c(OC)c2)oc1C (stereo not drawn),"6.31 µM [rising, partial curve, poor fit]",–
O=C1C(Cl)=C(N2CCOCC2)C(=O)N1c1cccc(C(F)(F)F)c1,"22.4 µM [falling, partial curve, poor fit]",–
O=C(Nc1ccc(Cl)c(Cl)c1)Nc1ccccc1C(=O)O,"1.58 µM [falling, full curve]",–
Fc1cccc(CNc2ncnc3ccc(-c4cccnc4)cc23)c1,"29.1 µM [rising, single point]",–
O=C(CN1C(=O)c2ccccc2S1(=O)=O)NCc1ccccc1Cl,"13 µM [rising, partial curve, poor fit]",–
CCN(CC)C(=O)c1ccc(S(=O)(=O)Cc2ccc(C)cc2)c([N+](=O)[O-])c1,"6.31 µM [falling, full curve]",–
CC1CCCN(CCCNC(=O)c2ccc3c(c2)N(Cc2ccc(F)cc2)C(=O)c2ccccc2S3=O)C1 (stereo not drawn),"12.6 µM [falling, partial curve, poor fit]",–
CN(Cc1ccc(F)cc1)C(=O)c1cccc(OC2CCN(C3CCCC3)CC2)c1,"35.5 µM [falling, single point]",–
CCOC(=O)c1cnc2c(OC)cccc2c1Nc1ccc2c(c1)OCCO2,"32.6 µM [rising, single point]",–

# Rewritten as tab-separated lines: part of the list above
SMILES	AC50 [1]	AC50 [2]
Fc1cccc(-c2cc3nc4c(c(NCc5ccco5)n3n2)CCCC4)c1	1.26 µM [falling, full curve, poor fit]	–
O=C(Nc1ccc(Cl)c(Cl)c1)Nc1ccccc1C(=O)O	1.58 µM [falling, full curve]	–

# Entries of single compounds, looked up by structure:
# O=C1C(Cl)=C(N2CCOCC2)C(=O)N1c1cccc(C(F)(F)F)c1 in the list: AC50 [1]: 22.4 µM [falling, partial curve, poor fit]
# Cc1cc(Cl)n2c(nc3ccccc32)c1C#N in the list: AC50 [2]: 2 µM [falling, partial curve, poor fit]

# More records

SMILES,AC50 [1],AC50 [2]
CC(=O)c1ccc(-c2ccc(-c3cc(=O)oc4c(C(C)C)ccc(C)c34)cc2)cc1,"16.4 µM [rising, partial curve, poor fit]",–
Oc1cccc(C(Nc2nccs2)c2ccc3cccnc3c2O)c1 (stereo not drawn),"15.8 µM [falling, single point]","25.1 µM [rising, partial curve, poor fit]"
Cc1cccc(C)c1OCC(=O)NCc1nnc(SCC(=O)NC2CCCCC2C)n1C (stereo not drawn),"6.51 µM [rising, single point]",–
COc1ccccc1N(CC(=O)Nc1cccnc1)S(=O)(=O)c1ccccc1,"0.316 µM [falling, full curve, poor fit]",–
O=C(NC1CCCC1)C1C2C=CC3(CN(Cc4cccs4)C(=O)C13)O2 (stereo not drawn),"0.231 µM [rising, full curve, poor fit]",–
COc1ccc(Cc2nnc(N/N=C/c3ccccc3O)[nH]c2=O)cc1OC,"7.31 µM [falling, partial curve]",–
Cc1c(O)ccc(C(=O)COc2ccccc2F)c1O,"7.08 µM [rising, partial curve, poor fit]",–
COc1ccc(C2Nc3ccccc3C(=O)N2Cc2ccccc2)cc1COc1ccccn1 (stereo not drawn),"17.8 µM [falling, single point]",–
COC(=O)c1ccc(-c2ncc(-c3cccc4ccccc34)o2)cc1,"0.0891 µM [falling, full curve, poor fit]",–
O=C(NNC(=O)c1c(O)c2ccccc2[nH]c1=O)c1ccccc1,"1.41 µM [falling, full curve]",–
COc1cc(C(=O)/C=C/Nc2ccc(NC(C)=O)cc2)cc(OC)c1OC,"23.1 µM [rising, partial curve, poor fit]","16.4 µM [falling, single point]"
CC(C)(C)c1ccc(C2C3=C(CCCC3=O)NC3=C2C(=O)c2ccccc23)cc1 (stereo not drawn),"35.5 µM [falling, partial curve, poor fit]",–
Cc1oc(-c2nc3ccccc3n2C)cc1C(=O)c1ccccc1,"29.1 µM [falling, single point]",–
C[C@]12c3[nH]c4ccccc4c3CCN1C(=O)C(CC(=O)NCC13CC4CC(CC(C4)C1)C3)C[C@@H]2C(=O)N1CCOCC1 (stereo partly drawn),"32.6 µM [falling, single point]",–
O=S(=O)(NC1CCN(S(=O)(=O)c2ccc3c(c2)OCCO3)C1)c1c(F)cccc1F (stereo not drawn),"1.64 µM [rising, full curve, poor fit]",–
C(=N/Nc1nc(-c2ccccc2)cc(-c2ccccc2)n1)/c1cccnc1,"2.06 µM [falling, partial curve]",–
COC(=O)[C@H](Cc1ccc(O)cc1)NC(=O)Cn1cnc2c(OCc3ccccc3)ncnc21,"16.4 µM [rising, partial curve, poor fit]",–
CC(C)[C@H](NC(=O)c1ccccc1)C(=O)OCC(=O)NCCc1ccc(F)cc1,"5.17 µM [rising, full curve, poor fit]",–
CC(C)C[C@H](NC(=O)N1CCn2c1nc1ccccc12)C(=O)NCc1ccco1,"35.5 µM [falling, single point]",–
Cc1nc2cc(-c3ccccc3)nn2c(C)c1CCC(=O)N1CCN(c2ccccc2)CC1,"6.51 µM [falling, full curve, poor fit]",–

SMILES,AC50 [1],AC50 [2]
CCOc1cccc(C(=O)Nc2cccc(-c3nnc(-c4ccccc4)o3)c2)c1,"0.891 µM [rising, full curve, poor fit]",–
O=C(CN1C(=O)C(=O)N(C2CCCC2)C1=O)Nc1ccc(OC(F)F)cc1,"18.4 µM [rising, single point]",–
CC[C@@]1(O)C(=O)OCc2c1cc1n(c2=O)Cc2cc3c(N)cccc3nc2-1,"1.41 µM [falling, full curve]","0.794 µM [rising, partial curve, poor fit]"
Cc1cccc(/C(N)=N/OC(=O)Cc2cccs2)c1,"1.26 µM [rising, partial curve, poor fit]",–
c1cc2c(cc1-c1[nH]ncc1CN1CC3C[C@@H]4CC1C[C@H](C3)C4)OCO2,"25.1 µM [falling, single point]",–
CC(=O)c1c(C)[nH]c(C(=O)Nc2cccc(S(=O)(=O)N(C)c3ccccc3)c2)c1C,"35.5 µM [falling, single point]",–
O=C(NCc1ccco1)Nc1ccccc1Cl,"6.51 µM [rising, single point]",–
CCN(CC)C(=O)CSc1nc2nc(C)cc(C)c2c(=O)[nH]1,"7.31 µM [falling, full curve, poor fit]",–
Cc1cccc(NC(=S)N=Nc2c(O)n(C)c3ccc(S(=O)(=O)N4CCOCC4)cc23)c1,"11.6 µM [rising, partial curve]","14.6 µM [falling, partial curve]"
Cc1ccc(S(=O)(=O)N/N=C2/CC(c3ccccc3)Oc3ccccc32)cc1[N+](=O)[O-] (stereo not drawn),"0.461 µM [rising, full curve, poor fit]",–
Cc1cc(C(=O)COc2nncc3ccccc23)c(C)n1C,"17.8 µM [rising, single point]",–
O=C1[C@@H]2[C@H](Cc3ccc(O)cc3)N[C@]3(C(=O)Nc4ccccc43)[C@@H]2C(=O)N1c1ccc(F)cc1,"8.91 µM [falling, partial curve, poor fit]",–
Oc1ccccc1Nc1ncnc2c1oc1ccccc12,"20 µM [falling, partial curve, poor fit]",–
O=C(O)CCCCCNC(=O)c1ccc(C(=O)NCCCCCC(=O)O)cc1,"4.47 µM [rising, full curve, poor fit]",–
COc1ccc(/C=N/Nc2nc(-c3ccc(C)cc3)c(C#N)c(=O)[nH]2)cc1,"7.94 µM [falling, partial curve, poor fit]",–
Cc1c(NC(=O)CSc2nnc(-c3ccncc3)o2)c(=O)n(-c2ccccc2)n1C,"10 µM [rising, partial curve, poor fit]",–
CC(C)(C)c1ccc(-c2nnc(SCC(=O)Nc3sc4c(c3C#N)CCCC4)o2)cc1,"5.8 µM [rising, full curve, poor fit]",–
CCOC(=O)/C(C#N)=C/c1cn(CCOc2ccc(OC)cc2)c2ccccc12,"0.103 µM [rising, full curve, poor fit]",–
Cc1ccc(C(=O)N2CC(=O)Nc3ccc(F)cc3C2c2ccccc2)cc1 (stereo not drawn),"7.08 µM [falling, partial curve, poor fit]",–
